# Patent US20040259122A1
# These are yes or no findings as the source states them, for the method shown. Some binding calls cover weakened binding; strength is not graded here. Where a sequence is shown, tags or fusion partners need not be part of it.
# B1: Ccl1 (activation domain fusion prey) (protein, UniProt P37366 1-393, looked up, not shown: large carriers)
# chain: MTDIQLNGKSTLDTPSATMSAKEKEAKLKSADENNKPPNYKRISDDDLYRHSSQYRMWSYTKDQLQEKRVDTNARAIAYIEENLLKFREAHNLTEEEIKVLEAKAIPLTMEEELDLVNFYAKKVQVIAQHLNLPTEVVATAISFFRRFFLENSVMQIDPKSIVHTTIFLACKSENYFISVDSFAQKAKSTRDSVLKFEFKLLESLKFSLLNHHPYKPLHGFFLDIQNVLYGKVDLNYMGQIYDRCKKRITAALLTDVVYFYTPPQITLATLLIEDEALVTRYLETKFPSREGSQESVPGNEKEEPQNDASTTEKNKEKSTESEEYSIDSAKLLTIIRECKSIIEDCKPPSTEEAKKIAAKNYYCQNPSTLIQKLKRKLNGEDTSSTVEKKQKT
# B2: YDL100c (activation domain fusion prey) (protein, UniProt Q12154 1-354, looked up, not shown: large carriers)
# chain: MDLTVEPNLHSLITSTTHKWIFVGGKGGVGKTTSSCSIAIQMALSQPNKQFLLISTDPAHNLSDAFGEKFGKDARKVTGMNNLSCMEIDPSAALKDMNDMAVSRANNNGSDGQGDDLGSLLQGGALADLTGSIPGIDEALSFMEVMKHIKRQEQGEGETFDTVIFDTAPTGHTLRFLQLPNTLSKLLEKFGEITNKLGPMLNSFMGAGNVDISGKLNELKANVETIRQQFTDPDLTTFVCVCISEFLSLYETERLIQELISYDMDVNSIIVNQLLFAENDQEHNCKRCQARWKMQKKYLDQIDELYEDFHVVKMPLCAGEIRGLNNLTKFSQFLNKEYNPITDGKVIYELEDKE
# B3: Pcl10 (activation domain fusion prey) (protein, UniProt P53124 1-433, looked up, not shown: large carriers)
# chain: MDMTKNHTTDTEEFDDGDIRPVSLGIVDDYNASFELPLKPKFLQSENFSDLTSEWDQSRSNTPGLAEGKTEKAQPCGTTDSSKNRIHVEQLLESANEMNNYLAQNIENINNFQVGLLNGGKGLYSSMGDDSSACINGTNFSSTSNFELSDDELEDTTGCTSSIFDKDLFHQQNGLSIPRRRSPLFKSPTASFEIGDATDVEEQDIDDSIFSECSSITSFDMGGLHISLPHDEEEDQEKTKSESENPLLHGIPVDVEVPHISVDEALANFKETIELLLKLSGNRKCTGFNTRVEKKEYSNFYMKSKPTLSSADFLKRIQDKCEYQPTVYLVATFLIDTLFLTRDGNNILQLKLNLQEKEVHRMIIAAVRLSTKLLEDFVHSHEYFSKVCGISKRLLTKLEVSLLICVCNTKLMVSNRKLAASKLLLNELRSFCV
# Molecular target: Kin28 alone bait (pMK498)
# Assay: yeast two-hybrid, growth in the presence of 3-AT
row,binding,Binder
1,binds,B1
2,binds,B2
3,binds,B3
